Common to all, as to test: affinity purification with mass spectrometry; GFP-tagged bait immunoprecipitated from extracts of transgenic Arabidopsis plants (pALP1::ALP1-GFP, 35S::ALP1-GFP, 35S::GFP-CLF, 35S::GFP control); co-purifying proteins identified by mass spectrometry (IP-MS); three independent replicates
Test [1] has as its target T1, GFP-CLF (CURLY LEAF fused to GFP) (Arabidopsis) (UniProt P93831).
T1 sequence: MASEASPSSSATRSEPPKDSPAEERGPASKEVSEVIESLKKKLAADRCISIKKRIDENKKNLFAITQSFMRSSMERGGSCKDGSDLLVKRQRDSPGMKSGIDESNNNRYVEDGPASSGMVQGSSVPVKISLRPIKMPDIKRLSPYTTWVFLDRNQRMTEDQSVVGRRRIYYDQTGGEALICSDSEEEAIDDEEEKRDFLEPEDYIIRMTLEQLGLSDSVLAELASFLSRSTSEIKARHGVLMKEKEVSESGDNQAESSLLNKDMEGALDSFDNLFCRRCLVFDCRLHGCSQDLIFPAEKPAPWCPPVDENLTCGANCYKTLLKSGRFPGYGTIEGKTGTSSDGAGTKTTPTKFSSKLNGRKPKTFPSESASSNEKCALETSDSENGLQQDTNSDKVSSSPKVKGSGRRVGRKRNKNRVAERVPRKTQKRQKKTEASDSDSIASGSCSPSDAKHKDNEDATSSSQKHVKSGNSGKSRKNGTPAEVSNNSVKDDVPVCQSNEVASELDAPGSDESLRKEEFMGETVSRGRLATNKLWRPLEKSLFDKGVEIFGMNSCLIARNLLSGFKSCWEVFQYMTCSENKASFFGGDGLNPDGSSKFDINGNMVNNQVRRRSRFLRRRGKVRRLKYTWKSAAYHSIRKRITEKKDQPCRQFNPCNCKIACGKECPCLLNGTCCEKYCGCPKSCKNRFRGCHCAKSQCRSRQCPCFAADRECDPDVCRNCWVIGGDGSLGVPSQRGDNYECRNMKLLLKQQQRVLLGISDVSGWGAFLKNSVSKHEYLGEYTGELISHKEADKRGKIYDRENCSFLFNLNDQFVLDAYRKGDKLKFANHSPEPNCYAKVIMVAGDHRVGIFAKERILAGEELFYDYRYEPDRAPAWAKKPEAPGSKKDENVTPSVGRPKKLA

Test [2] concerns the target T2, ALP1-GFP (ANTAGONIST OF LIKE HETEROCHROMATIN PROTEIN1 fused in frame to GFP) (Arabidopsis) (UniProt Q94K49).
T2 sequence: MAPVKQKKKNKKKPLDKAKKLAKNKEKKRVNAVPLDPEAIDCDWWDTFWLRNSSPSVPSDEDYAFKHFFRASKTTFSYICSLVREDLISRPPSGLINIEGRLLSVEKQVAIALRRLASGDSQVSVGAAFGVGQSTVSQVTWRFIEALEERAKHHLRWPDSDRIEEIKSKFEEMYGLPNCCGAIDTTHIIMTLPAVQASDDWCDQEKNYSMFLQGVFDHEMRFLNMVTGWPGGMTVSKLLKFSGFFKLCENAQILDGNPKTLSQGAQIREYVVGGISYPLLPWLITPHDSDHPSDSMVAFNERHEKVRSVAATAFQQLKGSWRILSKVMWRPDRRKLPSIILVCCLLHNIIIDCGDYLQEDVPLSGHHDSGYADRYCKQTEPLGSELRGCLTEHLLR

The target of test [3] is T3, ALP1-GFP (ANTAGONIST OF LIKE HETEROCHROMATIN PROTEIN1 fused in frame to GFP) (Arabidopsis), Q94K49.
T3 chain: T2 sequence
Conditions: remark: other sources report otherwise.

Results are given in words; binding and its absence hold for the method and conditions named. Binding seen in cells or lysates may run through a third protein. These calls come from enrichment with a bait or labelling near it, and not all partners need be listed. For some assays here: A no says only that the protein was not detected with the bait. Tags and fused reporters may be left off the sequences shown.

B1: LIKE HETEROCHROMATIN PROTEIN 1 (LHP1) (protein, UniProt Q946J8 1-445)
chain: MKGASGAVKKKPQVLNEAGEAETAVETVGESRKISGDGGFGSDDGGGGGGGGSGESILREIGDDRPTEDGDEEEEEDEDEDDGGDEEDEEGEGEGGQEERPKLDEGFYEIEAIRRKRVRKGKVQYLIKWRGWPETANTWEPLENLQSIADVIDAFEGSLKPGKPGRKRKRKYAGPHSQMKKKQRLTSTSHDATEKSDSSTSLNNSSLPDIPDPLDLSGSSLLNRDVEAKNAYVSNQVEANSGSVGMARQVRLIDNEKEYDPTLNELRGPVNNSNGAGCSQGGGIGSEGDNVRPNGLLKVYPKELDKNSRFIGAKRRKSGSVKRFKQDGSTSNNHTAPTDQNLTPDLTTLDSFGRIARMGNEYPGVMENCNLSQKTKIEELDITKILKPMSFTASVSDNVQEVLVTFLALRSDGKEALVDNRFLKAHNPHLLIEFYEQHLKYNRTP
For B1, the binding result in test [1] is “binds”; in test [2], “no binding”.

B2: EMBRYONIC FLOWER2 (EMF2), Q8L6Y4 1-631 (protein)
chain: MPGIPLVSRETSSCSRSTEQMCHEDSRLRISEEEEIAAEESLAAYCKPVELYNIIQRRAIRNPLFLQRCLHYKIEAKHKRRIQMTVFLSGAIDAGVQTQKLFPLYILLARLVSPKPVAEYSAVYRFSRACILTGGLGVDGVSQAQANFLLPDMNRLALEAKSGSLAILFISFAGAQNSQFGIDSGKIHSGNIGGHCLWSKIPLQSLYASWQKSPNMDLGQRVDTVSLVEMQPCFIKLKSMSEEKCVSIQVPSNPLTSSSPQQVQVTISAEEVGSTEKSPYSSFSYNDISSSSLLQIIRLRTGNVVFNYRYYNNKLQKTEVTEDFSCPFCLVKCASFKGLRYHLPSTHDLLNFEFWVTEEFQAVNVSLKTETMISKVNEDDVDPKQQTFFFSSKKFRRRRQKSQVRSSRQGPHLGLGCEVLDKTDDAHSVRSEKSRIPPGKHYERIGGAESGQRVPPGTSPADVQSCGDPDYVQSIAGSTMLQFAKTRKISIERSDLRNRSLLQKRQFFHSHRAQPMALEQVLSDRDSEDEVDDDVADFEDRRMLDDFVDVTKDEKQMMHMWNSFVRKQRVLADGHIPWACEAFSRLHGPIMVRTPHLIWCWRVFMVKLWNHGLLDARTMNNCNTFLEQLQI
Turning to B2, in test [3], the binding result is “binds”.

B3: MSI1, O22467 1-424 (protein)
chain: MGKDEEEMRGEIEERLINEEYKIWKKNTPFLYDLVITHALEWPSLTVEWLPDREEPSGKDYSVQKMILGTHTSESEPNYLMLAQVQLPLDDTESEARQYDDDRSEFGGFGCATGKVQIIQQINHDGEVNRARYMPQNPFIIATKTVNAEVYVFDYSKHPSKPPLDGACNPDLKLRGHSSEGYGLSWSKFKQGHLLSGSDDAQICLWDINATPKNKSLDAQQIFKAHEGVVEDVAWHLRHEYLFGSVGDDQYLLIWDLRSPSASKPVQSVVAHSMEVNCLAFNPFNEWVVATGSTDKTVKLFDLRKLSTALHTFDSHKEEVFQVGWNPKNETILASCCLGRRLMVWDLSRIDEEQTVEDAEDGPPELLFIHGGHTSKISDFSWNPCEDWVISSVAEDNILQIWQMAENIYHDEDDAPGEEPSKAS
On to B3, for which the binding result in test [3] was “binds”.

B4: CURLY LEAF (CLF), P93831 1-902 (protein)
chain: T1 sequence
On to B4, for which, in test [3], the binding entry was “binds”.

B5: VERNALIZATION2 (VRN2) (protein, UniProt Q8W5B1 1-440)
chain: MCRQNCRAKSSPEEVISTDENLLIYCKPVRLYNIFHLRSLGNPSFLPRCLNYKIGAKRKRKSRSTGMVVFNYKDCNNTLQRTEVREDCSCPFCSMLCGSFKGLQFHLNSSHDLFEFEFKLLEEYQTVNVSVKLNSFIFEEEGSDDDKFEPFSLCSKPRKRRQRGGRNNTRRLKVCFLPLDSPSLANGTENGIALLNDGNRGLGYPEATELAGQFEMTSNIPPAIAHSSLDAGAKVILTTEAVVPATKTRKLSAERSEARSHLLLQKRQFYHSHRVQPMALEQVMSDRDSEDEVDDDVADFEDRQMLDDFVDVNKDEKQFMHLWNSFVRKQRVIADGHISWACEVFSRFYEKELHCYSSLFWCWRLFLIKLWNHGLVDSATINNCNTILENCRNTSVTNNNNNSVDHPSDSNTNNNNIVDHPNDIKNKNNVDNKDNNSRDK
Consider B5, for which the values for the binding entry in test [1] and in test [2] were “binds” and “no binding”, respectively.

B6: FIE, Q9LT47 1-369 (protein)
chain: MSKITLGNESIVGSLTPSNKKSYKVTNRIQEGKKPLYAVVFNFLDARFFDVFVTAGGNRITLYNCLGDGAISALQSYADEDKEESFYTVSWACGVNGNPYVAAGGVKGIIRVIDVNSETIHKSLVGHGDSVNEIRTQPLKPQLVITASKDESVRLWNVETGICILIFAGAGGHRYEVLSVDFHPSDIYRFASCGMDTTIKIWSMKEFWTYVEKSFTWTDDPSKFPTKFVQFPVFTASIHTNYVDCNRWFGDFILSKSVDNEILLWEPQLKENSPGEGASDVLLRYPVPMCDIWFIKFSCDLHLSSVAIGNQEGKVYVWDLKSCPPVLITKLSHNQSKSVIRQTAMSVDGSTILACCEDGTIWRWDVITK
For B6, in test [3], the binding entry is recorded as “binds”.

For the origin of these results see paper PMC4671723.
